# Assay results taken from PubChem BioAssay AID624297 (National Center for Advancing Translational Sciences (NCATS), 2012).
# Values joined by “and” are separate entries in the source; they are usually repeats but may differ in a detail not shown here. Equal values may be shown once. Hit rate of the full screen: of about 340,000 compounds, about 6,200 (1.8%) were called active. Inconclusive means that the source gave no clear call. Such entries were picked first, then a sample of the others. Calls come from the whole dose curve; as a rule, active = well fitted activation curve with a large enough effect; inconclusive = small, poorly fitted or top-dose-only effect; inactive = no such curve, though single readings can be large or run the other way. Potencies beside an inconclusive call are fits to weak or partial responses and may not hold up. Some structures have more than one record in an assay (separate samples or runs), and their calls can disagree.
# Experiment: A quantitative high throughput screen for small molecules that induce DNA re-replication in SW480 colon adenocarcinoma cells. For re-replication activation: % of control where 0% means no effect. Note: nearly all actives have a fitted effect of over 55% in size.
# Settings: Hoechst DNA content imaging, 48 h; re-replication activation: at 46.1 µM (top of the series) unless noted
# Outline: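 SW480 cells exposed to compounds for 48 hr at 37 C, 5% CO2, then Hoechst-stained 40 min. Nuclear DNA content imaged by fluorescence scanning (405 nm excitation, 500-530 nm emission); re-replication scored as increased high-intensity nuclei.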
# Potency is the fitted concentration of half-maximal effect.
Compound,Potency,re-replication activation
CCOc1ccc(-n2c(SCC(N)=O)nnc2-c2ccco2)cc1,"inconclusive: 20.6 µM [activator, single point]",–
CCN(CC(=O)Nc1ccc(C(=O)Nc2ccc(OC)cc2)cc1)Cc1nc2ccccc2c(=O)[nH]1,–,inactive: -18.7%
COc1ccccc1C(=O)NCC1(c2ccccc2)CCCC1,"inconclusive: 0.103 µM [activator, full curve, poor fit]",–
CN(C)CCCNC(=O)/C=C/c1ccc(OCc2c(F)cccc2Cl)cc1,"inconclusive: 29.1 µM [activator, single point]",–
Oc1ccc(Cl)cc1C1=NNC(c2cccs2)C1 (stereo not given),"inconclusive: 20.6 µM [activator, single point]",–
COc1cccc(-c2nc3ccccc3c(=O)o2)c1,"inconclusive: 18.4 µM [activator, single point]",–
Cc1cc(NC(=O)CCS(=O)(=O)c2nc(-c3ccccc3)cc(C(F)(F)F)n2)no1,"inconclusive: 7.31 µM [activator, partial curve, poor fit]",–
CCCC(=O)Nc1ccc(Cl)c(NC(=O)c2ccco2)c1,"inconclusive: 18.4 µM [activator, single point]",–
Cc1ccc(Cn2c(C)cc3c(c2=O)C(c2cccs2)C(C#N)=C(N)O3)cc1 (stereo not given),–,inactive: 0.316%
CCOc1ccc(N(CC(=O)Nc2ccccc2OC)S(=O)(=O)c2ccccc2)cc1,active: 2.31 µM,–
Cc1cc2c(cc1C)C(c1ccccc1OC(C)C)CC(=O)N2 (stereo not given),active: 5.17 µM,–
COc1ccc(CNS(=O)(=O)c2ccc(S(=O)(=O)N3CCCCC3)cc2)cc1,"inconclusive: 0.13 µM [activator, full curve, poor fit]",–
COc1ccc(CN2C(=O)CS/C2=N/N=C/c2cccs2)cc1,"inconclusive: 1.16 µM [activator, full curve, poor fit]",–
CC1(c2ccccc2Cl)NC(=O)N(CC(=O)Nc2ccc(N3CCCCC3)cc2)C1=O (stereo not given),"inconclusive: 23.1 µM [activator, partial curve, poor fit]",–
Cc1nc2nc(SCC(=O)N3CCOCC3)nn2c(C)c1Cc1c(F)cccc1Cl,–,inactive: 0.353%
C/C=C/C(=O)NCCc1ccc(OC)c(OC)c1,–,inactive: -5.36%
CC(NC(=O)CNC(=O)[C@@H]1Cc2ccccc2CN1)c1ccccc1 (stereo not given in full),"inconclusive: 4.11 µM [activator, single point]",–
COc1ccc(Cl)cc1NC(=O)C(C)OC(=O)c1ccc(NS(=O)(=O)c2ccc3[nH]c(=O)[nH]c3c2)cc1 (stereo not given),–,inactive: -2.15%
O=S(=O)(c1ccc(Br)cc1)N1CCCN(Cc2cccc(F)c2)CC1,inactive and active: 20.6 µM,–
O=C(CSc1nnc(-c2cccnc2)n1-c1ccccc1)N1CCN(c2ccc(F)cc2)CC1,–,inactive: -2.96% [at 9.22 µM]
O=C(NN1C(=O)C2C3c4ccccc4C(c4ccccc43)C2C1=O)c1ccc(Cl)cc1 (stereo not given),–,inactive: -7.86%
CC(NC(=O)CCC(=O)N1CCN(S(=O)(=O)c2ccc(Cl)cc2)CC1)c1ccccc1 (stereo not given),"inconclusive: 1.84 µM [activator, partial curve, poor fit]",–
N#Cc1ccc(C(=O)Nc2nnc(-c3ccco3)o2)cc1,"inconclusive: 18.4 µM [activator, single point]",–
CCc1nnc(NC(=O)CSc2nnc3scc(-c4ccc(C)cc4)n23)s1,–,inactive: 1.6%

Compound,Potency,re-replication activation
COc1ccc(-c2cc(=O)[nH]c(=S)[nH]2)cc1,–,inactive: -0.693%
Cc1ccc(C(=O)Cc2ccccc2)cc1,–,inactive: -4.69%
CCCN1Cc2cccc(C(=O)NCCc3ccccc3)c2C1=O,–,inactive: -1.53%
CCC(C)N1CC(C(=O)O)CC1=O (stereo not given),–,inactive: -10.7%
Cc1ccc(C2CC(c3cccs3)=NN2C(=O)CSC2=NCCS2)cc1 (stereo not given),"inconclusive: 29.1 µM [activator, partial curve, poor fit]",–
COc1ccc2[nH]c(C(=O)Nc3ccccc3Cl)cc2c1,"inconclusive: 0.103 µM [activator, full curve, poor fit]",–
O=C(O)Cc1sc(-c2cccnc2)nc1-c1ccc(Br)cc1,"inconclusive: 29.1 µM [activator, single point]",–
CC(=O)OCCCNc1cc(SCc2ccco2)c2nonc2c1[N+](=O)[O-],"inconclusive: 18.4 µM [activator, single point]",–
O=S(=O)(NCCC1=CCCCC1)c1cccc(S(=O)(=O)N2CCOCC2)c1,"inconclusive: 20.6 µM [activator, partial curve, poor fit]",–
Cc1ccc(NC(=O)c2cc(N3C(=O)C=CC3=O)ccc2N2CCOCC2)cc1,"inconclusive: 7.31 µM [activator, partial curve]",–
COc1ccccc1CNC(=O)CN1C(=O)NC(C)(c2ccc(C)cc2)C1=O (stereo not given),–,inactive: -2.19%
COCCn1c(C)cc(C(=O)COC(=O)c2c(C)nn(Cc3ccccc3)c2C)c1C,–,inactive: -8.85%
CCN1C[C@@H]2[C@@H]3C(=O)N(C)C(=O)[C@@H]3[C@](C)(C1=O)N2C(=O)c1ccccc1,"inconclusive: 0.651 µM [activator, full curve, poor fit]",–
O=C(COC(=O)c1ccc([N+](=O)[O-])o1)NC1CCCC1,–,inactive: -2.87%
Cc1ccc(N=Nc2ccc(O)c(/C=N\NC(=O)c3ccc(N)cc3)c2)cc1C,active: 3.66 µM,–
COc1ccc(-c2c(-c3ccc(O)cc3O)n[nH]c2C)cc1OC,"inconclusive: 29.1 µM [activator, single point]",–
O=C(CNC(=O)c1ccc(Br)o1)NNC(=O)c1ccc(Br)cc1,"inconclusive: 0.13 µM [activator, full curve, poor fit]",–
CCOc1ccc(-c2cc(C(=O)NCCCN3CCN(CC)CC3)c3ccccc3n2)cc1,"inconclusive: 20 µM [activator, single point]",–
COc1ccc(C2=NOC(C(=O)NC3CCCCC3)C2)cc1OC (stereo not given),–,inactive: -8.85%
CC(C)(c1cc(Br)c(O)c(Br)c1)c1cc(Br)c(O)c(Br)c1,–,inactive: -3.69%
O=C(OCn1ncc(Cl)c(Cl)c1=O)c1ccc(C(F)(F)F)cc1,active: 6.51 µM,–
NS(=O)(=O)c1ccc(NC(=O)COC(=O)Cn2cnc3ccccc3c2=O)cc1,–,inactive: -0.938%
Cc1cc(N2CCN(C)CC2)nc2ccc(NC(=S)N3CCN(c4ccccn4)CC3)cc12,"inconclusive: 18.4 µM [activator, single point]",–
O=C(/C=C/c1cccs1)NNC(=O)c1cccc([N+](=O)[O-])c1,–,inactive: -4.38%

Compound,Potency,re-replication activation
O=S(=O)(Cc1cccc(F)c1)c1c[nH]c2ccccc12,–,inconclusive: 32.8% [activator]
CCOc1ccc(CC2c3cc(OCC)c(OCC)cc3CCN2C(=O)c2cc(OC)c(OC)c(OC)c2)cc1OCC (stereo not given),–,inactive: 8.86%
COc1ccc(C(=O)NC(=S)Nc2ccc(N3CCOCC3)cc2)cc1Cl,"inconclusive: 20.6 µM [activator, single point]",–
COC(=O)c1sccc1NC(=S)N1CCN(c2cc(C)ccc2C)CC1,"inconclusive: 20.6 µM [activator, single point]",–
Cc1ccc(C2CC(c3cccs3)=NN2C(=O)CCl)cc1 (stereo not given),"inconclusive: 5.8 µM [activator, partial curve, poor fit]",–
Fc1ccc(-n2nnnc2-c2cnc(-c3cccs3)nc2C(F)(F)F)cc1,"inconclusive: 29.1 µM [activator, partial curve, poor fit]",–
COc1ccc(CN2c3c(Br)cccc3C(=O)CS2(=O)=O)cc1,"inconclusive: 25.9 µM [activator, single point]",–
Nn1nnc2ccccc21,"inconclusive: 16.4 µM [activator, single point]",–
CN1CCN(C2=C(Cl)C(=O)C(c3cnc(N4CCCCC4)s3)=C(Cl)C2=O)CC1,"inconclusive: 16.4 µM [activator, single point]",–
CCOc1ccc(CCNC(=O)CN2C(=O)NC3(CCCCC3C)C2=O)cc1OCC (stereo not given),"inconclusive: 29.1 µM [activator, single point]",–
COc1ccc(OC)c(C(c2nnnn2C2CCCC2)N2CCN(c3ccc(F)cc3)CC2)c1 (stereo not given),"inconclusive: 32.6 µM [activator, partial curve, poor fit]",–
O=[N+]([O-])c1ccc2nc(-c3ccccc3)n(OCc3ccc(Cl)cc3)c2c1,–,inactive: -3.49%
c1cnc2nc3c4ccccc4c4ccccc4c3nc2c1,active: 23.1 µM,–
CCCCN1C(=O)CC(Sc2ccccc2C(=O)O)C1=O (stereo not given),"inconclusive: 29.1 µM [activator, single point]",–
CC(=O)c1ccc(NC(=O)C2CC(=O)N(Cc3ccccc3)C2)cc1 (stereo not given),–,inactive: -20.6%
CCOC(=O)c1cnc(-n2[nH]c(C)c(Cc3ccccc3)c2=O)[nH]c1=O,"inconclusive: 29.1 µM [activator, single point]",–
Cc1ccc(C(C)C)c(OCC(=O)NN=C2CCCCCCC2)c1,"inconclusive: 29.1 µM [activator, single point]",–
COc1ccc(NC(=O)c2cc(S(=O)(=O)N(Cc3ccccc3)c3ccccc3)ccc2Cl)cn1,–,inactive: 1.33%
C=C1CC[C@@H]2[C@](C)(CO)[C@H](O)CC[C@@]2(C)[C@@H]1C/C=C1/C(=O)OCC1O (stereo not given in full),"inconclusive: 7.31 µM [activator, partial curve, poor fit]",–
CCOC(=O)c1c(C)n(C)c2cc(-c3ccc(F)cc3)c(O)cc12,–,inactive: -2.08%
O=C(CCCc1ccccc1)Nc1ccccc1[N+](=O)[O-],"inconclusive: 1.64 µM [activator, partial curve, poor fit]",–
O=C(CC1(O)C(=O)N(Cc2cccc3ccccc23)c2ccccc21)c1cccnc1 (stereo not given),"inconclusive: 23.1 µM [activator, single point]",–

# As entered above:
# O=C(NN1C(=O)C2C3c4ccccc4C(c4ccccc43)C2C1=O)c1ccc(Cl)cc1 (stereo not given) | re-replication activation: inactive: -7.86%
# Cc1ccc(C(C)C)c(OCC(=O)NN=C2CCCCCCC2)c1 | Potency: inconclusive: 29.1 µM [activator, single point]
# COc1ccc(CN2C(=O)CS/C2=N/N=C/c2cccs2)cc1 | Potency: inconclusive: 1.16 µM [activator, full curve, poor fit]
# Cc1nc2nc(SCC(=O)N3CCOCC3)nn2c(C)c1Cc1c(F)cccc1Cl | re-replication activation: inactive: 0.353%
